In publication PMC6331118:
Results are given in words; binding and its absence hold for the method and conditions named.

T1: Rab32 wt (pAS 2-1-Rab32 wt, two-hybrid bait) (UniProt Q13637)
T1 sequence: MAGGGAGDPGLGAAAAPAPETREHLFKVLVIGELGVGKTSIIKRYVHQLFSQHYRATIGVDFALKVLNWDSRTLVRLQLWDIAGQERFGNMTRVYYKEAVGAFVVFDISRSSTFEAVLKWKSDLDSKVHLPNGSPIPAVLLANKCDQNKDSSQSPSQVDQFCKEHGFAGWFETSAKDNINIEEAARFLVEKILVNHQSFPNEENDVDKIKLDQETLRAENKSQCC

T2: Rab38 wt (pAS 2-1-Rab38 wt, two-hybrid bait) (UniProt P57729)
T2 sequence: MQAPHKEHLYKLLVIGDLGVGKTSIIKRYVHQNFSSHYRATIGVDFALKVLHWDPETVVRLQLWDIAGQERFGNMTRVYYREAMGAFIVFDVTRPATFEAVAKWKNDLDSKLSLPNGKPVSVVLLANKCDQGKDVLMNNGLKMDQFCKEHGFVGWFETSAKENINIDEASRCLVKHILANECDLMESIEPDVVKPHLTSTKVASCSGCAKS

T3: Rab32 wt (pAS 2-1-Rab32 wt, two-hybrid bait), Q13637
T3 chain: T1 sequence

T4: Rab38 wt (pAS 2-1-Rab38 wt, two-hybrid bait), P57729
T4 chain: T2 sequence

B1: SNX2, full length (pGADT7-SNX2, two-hybrid prey) (protein, UniProt O60749-1 1-519)
chain: MAAEREPPPLGDGKPTDFEDLEDGEDLFTSTVSTLESSPSSPEPASLPAEDISANSNGPKPTEVVLDDDREDLFAEATEEVSLDSPEREPILSSEPSPAVTPVTPTTLIAPRIESKSMSAPVIFDRSREEIEEEANGDIFDIEIGVSDPEKVGDGMNAYMAYRVTTKTSLSMFSKSEFSVKRRFSDFLGLHSKLASKYLHVGYIVPPAPEKSIVGMTKVKVGKEDSSSTEFVEKRRAALERYLQRTVKHPTLLQDPDLRQFLESSELPRAVNTQALSGAGILRMVNKAADAVNKMTIKMNESDAWFEEKQQQFENLDQQLRKLHVSVEALVCHRKELSANTAAFAKSAAMLGNSEDHTALSRALSQLAEVEEKIDQLHQEQAFADFYMFSELLSDYIRLIAAVKGVFDHRMKCWQKWEDAQITLLKKREAEAKMMVANKPDKIQQAKNEIREWEAKVQQGERDFEQISKTIRKEVGRFEKERVKDFKTVIIKYLESLVQTQQQLIKYWEAFLPEAKAIA
B2: SNX5, full length (pGADT7-SNX5, two-hybrid prey), Q9Y5X3-1 1-404 (protein)
chain: MAAVPELLQQQEEDRSKLRSVSVDLNVDPSLQIDIPDALSERDKVKFTVHTKTTLPTFQSPEFSVTRQHEDFVWLHDTLIETTDYAGLIIPPAPTKPDFDGPREKMQKLGEGEGSMTKEEFAKMKQELEAEYLAVFKKTVSSHEVFLQRLSSHPVLSKDRNFHVFLEYDQDLSVRRKNTKEMFGGFFKSVVKSADEVLFTGVKEVDDFFEQEKNFLINYYNRIKDSCVKADKMTRSHKNVADDYIHTAACLHSLALEEPTVIKKYLLKVAELFEKLRKVEGRVSSDEDLKLTELLRYYMLNIEAAKDLLYRRTKALIDYENSNKALDKARLKSKDVKLAEAHQQECCQKFEQLSESAKEELINFKRKRVAAFRKNLIEMSELEIKHARNNVSLLQSCIDLFKNN
B3: SNX32, full length (pGADT7-SNX32, two-hybrid prey) (protein, UniProt Q86XE0-1 1-403)
chain: METYAEVGKEGKPSCASVDLQGDSSLQVEISDAVSERDKVKFTVQTKSCLPHFAQTEFSVVRQHEEFIWLHDAYVENEEYAGLIIPPAPPRPDFEASREKLQKLGEGDSSVTREEFAKMKQELEAEYLAIFKKTVAMHEVFLQRLAAHPTLRRDHNFFVFLEYGQDLSVRGKNRKELLGGFLRNIVKSADEALITGMSGLKEVDDFFEHERTFLLEYHTRIRDACLRADRVMRAHKCLADDYIPISAALSSLGTQEVNQLRTSFLKLAELFERLRKLEGRVASDEDLKLSDMLRYYMRDSQAAKDLLYRRLRALADYENANKALDKARTRNREVRPAESHQQLCCQRFERLSDSAKQELMDFKSRRVSSFRKNLIELAELELKHAKASTLILRNTLVALKGEP

Assays:
Assay in all cases: two-hybrid; co-transformation, yeast strain Gold as printed; growth on -AT plates and blue colour in β-Gal filter lift assay; Rab32 or Rab38 wt as bait, sorting nexins as prey
[1] = molecular target: T1, Rab32 wt (pAS 2-1-Rab32 wt, two-hybrid bait)
[2] = molecular target: T2, Rab38 wt (pAS 2-1-Rab38 wt, two-hybrid bait)
[3] = molecular target: T3, Rab32 wt (pAS 2-1-Rab32 wt, two-hybrid …); conditions: remark: other sources report otherwise
[4] = molecular target: T4, Rab38 wt (pAS 2-1-Rab38 wt, two-hybrid …); conditions: remark: other sources report otherwise

| Molecule | binding [1] | binding [2] | binding [3] | binding [4] |
| --- | --- | --- | --- | --- |
| SNX1, full length (pGADT7-SNX1, two-hybrid prey) (from UniProt Q13596-1 1-522) | no binding | no binding |  |  |
| B1 | no binding | no binding |  |  |
| B2 |  |  | no binding | no binding |
| B3 | no binding | no binding |  |  |
